Literature values, collected in US20170290285A1, “HIGH REBAUDIOSIDE-C PLANT VARIETAL AND COMPOSITIONS EXTRACTED THEREFROM WITH HIGH REBAUDIOSIDE-C AND TOTAL STEVIOL GLYCOSIDE CONTENT” (GLG Life Tech Corporation, priority 2014, published 2017).

Conditions: Table 1

Row | Molecule | Quality of taste
1 | C=C1C[C@@]23CC[C@H]4[C@@](C)(CCC[C@@]4(C)C(=O)O[C@@H]4O[C@H](CO)[C@@H](O)[C@H](O)[C@H]4O)[C@@H]2CC[C@]1(O[C@@H]1O[C@H](CO)[C@@H](O)[C@H](O)[C@H]1O[C@@H]1O[C@@H](C)[C@H](O)[C@@H](O)[C@H]1O)C3 [Dulcoside A] | Very bitter
2 | C=C1C[C@@]23CC[C@H]4[C@@](C)(CCC[C@@]4(C)C(=O)O[C@@H]4O[C@H](CO)[C@@H](O)[C@H](O)[C@H]4O[C@@H]4O[C@H](CO)[C@@H](O)[C@H](O)[C@H]4O)[C@@H]2CC[C@]1(O[C@@H]1O[C@H](CO)[C@@H](O)[C@H](O[C@@H]2O[C@H](CO)[C@@H](O)[C@H](O)[C@H]2O)[C@H]1O[C@@H]1O[C@H](CO)[C@@H](O)[C@H](O)[C@H]1O)C3 [Rebaudioside D] | Like sucrose
3 | C=C1C[C@@]23CC[C@H]4[C@@](C)(CCC[C@@]4(C)C(=O)O[C@@H]4O[C@H](CO)[C@@H](O)[C@H](O)[C@H]4O[C@@H]4O[C@H](CO)[C@@H](O)[C@H](O)[C@H]4O)[C@@H]2CC[C@]1(O[C@@H]1O[C@H](CO)[C@@H](O)[C@H](O)[C@H]1O[C@@H]1O[C@H](CO)[C@@H](O)[C@H](O)[C@H]1O)C3 [Rebaudioside E] | Like sucrose
4 | C=C1C[C@@]23CC[C@H]4[C@@](C)(CCC[C@@]4(C)C(=O)O)[C@@H]2CC[C@]1(O)C3 [Steviol] | Very bitter
5 | C=C1C[C@@]23CC[C@H]4[C@@](C)(CCC[C@@]4(C)C(=O)O[C@@H]4O[C@H](CO)[C@@H](O)[C@H](O)[C@H]4O)[C@@H]2CC[C@]1(O[C@@H]1O[C@H](CO)[C@@H](O)[C@H](O)[C@H]1O[C@@H]1O[C@H](CO)[C@@H](O)[C@H](O)[C@H]1O)C3 [Stevioside] | Bitter
6 | C=C1C[C@@]23CC[C@H]4[C@@](C)(CCC[C@@]4(C)C(=O)[O-])[C@@H]2CC[C@]1(O[C@@H]1O[C@@H](CO)[C@@H](O)[C@H](O)[C@@H]1O[C@@H]1O[C@@H](CO)[C@@H](O)[C@H](O)[C@@H]1O)C3.[Na+] [Stevlolbioside] | Unpleasant
7 | Rebaudioside B | Bitter
8 | Rebaudioside C | Bitter
9 | Rubusoside | Very bitter
